Laboratory results as given in publication PMC12225019.
No constants are given. Whether binding was seen depends on the method and setting. In cells and extracts the contact can be indirect. Here binding means that the protein was enriched with, or labelled near, the bait; the list need not be complete. For some assays here: Sequences can lack the tags named with a protein.

Chains of the proteins cited; added tags and fusions are not shown.
UniProt P52926: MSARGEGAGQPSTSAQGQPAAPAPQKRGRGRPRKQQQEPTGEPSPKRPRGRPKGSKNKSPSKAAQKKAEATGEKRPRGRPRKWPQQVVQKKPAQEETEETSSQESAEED

What was measured:
[1] = molecular target: T1, Myc-INAVA (innate immunity activator) (human) (UniProt Q3KP66); assay: affinity purification with mass spectrometry; immunoprecipitation and mass spectrometry to find the target proteins of INAVA in NOF activation; bait, antibody and cells not told in the text shown (Figure S3A)
T1 sequence: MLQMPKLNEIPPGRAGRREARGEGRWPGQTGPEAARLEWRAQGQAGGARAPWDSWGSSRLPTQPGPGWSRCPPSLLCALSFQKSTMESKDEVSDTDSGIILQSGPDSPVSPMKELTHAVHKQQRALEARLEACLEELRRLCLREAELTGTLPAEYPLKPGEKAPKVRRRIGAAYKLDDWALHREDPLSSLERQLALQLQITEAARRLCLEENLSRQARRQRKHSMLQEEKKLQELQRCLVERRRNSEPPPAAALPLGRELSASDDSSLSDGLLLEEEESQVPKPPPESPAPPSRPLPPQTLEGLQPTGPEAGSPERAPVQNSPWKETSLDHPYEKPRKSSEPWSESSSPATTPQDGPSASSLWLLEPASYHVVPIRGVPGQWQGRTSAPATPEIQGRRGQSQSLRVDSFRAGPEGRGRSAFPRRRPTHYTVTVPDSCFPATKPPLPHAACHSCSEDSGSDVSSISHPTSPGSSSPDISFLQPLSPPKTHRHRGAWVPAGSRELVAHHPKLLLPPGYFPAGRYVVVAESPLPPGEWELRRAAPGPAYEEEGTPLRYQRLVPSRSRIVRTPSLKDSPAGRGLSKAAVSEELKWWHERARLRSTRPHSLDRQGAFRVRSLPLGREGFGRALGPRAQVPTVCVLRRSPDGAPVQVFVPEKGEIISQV

[2] = molecular target: high mobility group protein A2 (HMGA2) (human (endogenous in NOF#1)) (UniProt P52926); assay: affinity purification with mass spectrometry; IP-coupled MS analysis in search of the kinase of HMGA2; bait and cells not told in the text shown

Molecule: high mobility group protein A2 (HMGA2) (from UniProt P52926 1-109)
- binding [1]: binds

B1: vaccinia‐related kinase 1 (VRK1) (enzyme, UniProt Q99986 1-396)
chain: MPRVKAAQAGRQSSAKRHLAEQFAVGEIITDMAKKEWKVGLPIGQGGFGCIYLADMNSSESVGSDAPCVVKVEPSDNGPLFTELKFYQRAAKPEQIQKWIRTRKLKYLGVPKYWGSGLHDKNGKSYRFMIMDRFGSDLQKIYEANAKRFSRKTVLQLSLRILDILEYIHEHEYVHGDIKASNLLLNYKNPDQVYLVDYGLAYRYCPEGVHKEYKEDPKRCHDGTIEFTSIDAHNGVAPSRRGDLEILGYCMIQWLTGHLPWEDNLKDPKYVRDSKIRYRENIASLMDKCFPEKNKPGEIAKYMETVKLLDYTEKPLYENLRDILLQGLKAIGSKDDGKLDLSVVENGGLKAKTITKKRKKEIEESKEPGVEDTEWSNTQTEEAIQTRSRTRKRVQK
- binding [2]: binds
